Assay results as given in the supplement of paper PMC12823440, “Inhibitors supercharge kinase turnover through native proteolytic circuits” (Nature, 2025).
The other results are listed elsewhere or left out. Hit calls seldom repeat between salt and free forms of one compound.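 In K562 cells expressing nanoluciferase-fused kinases, luminescence was recorded at 4 h intervals between 2 and 18 h, normalized as percent of control with DMSO at 100% and a positive control at 0%. A significant (2 sigma) signal drop marks a time point as decreased. The authors' rule for a hit is not shown and takes in more than the number of time points.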

Protein sequences, listed by entry. Tags and fused reporters are not part of them. Lines headed by an entry give the natural chain unless they say otherwise; changes in a name come on top.
UniProt Q9BRS2: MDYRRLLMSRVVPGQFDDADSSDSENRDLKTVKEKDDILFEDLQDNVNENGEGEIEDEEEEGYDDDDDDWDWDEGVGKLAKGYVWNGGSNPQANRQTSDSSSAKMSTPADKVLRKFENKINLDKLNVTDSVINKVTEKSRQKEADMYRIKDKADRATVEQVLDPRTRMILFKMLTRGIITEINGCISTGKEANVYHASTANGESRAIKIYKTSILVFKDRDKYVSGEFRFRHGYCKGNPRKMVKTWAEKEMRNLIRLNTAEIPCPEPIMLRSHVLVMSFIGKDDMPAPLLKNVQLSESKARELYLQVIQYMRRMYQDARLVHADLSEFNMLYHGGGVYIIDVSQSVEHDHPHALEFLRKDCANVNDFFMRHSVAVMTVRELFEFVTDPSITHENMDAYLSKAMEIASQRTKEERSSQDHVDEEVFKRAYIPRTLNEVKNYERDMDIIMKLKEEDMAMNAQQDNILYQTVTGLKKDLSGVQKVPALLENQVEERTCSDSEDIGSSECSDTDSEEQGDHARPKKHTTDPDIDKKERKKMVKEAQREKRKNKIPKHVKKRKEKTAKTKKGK
UniProt Q13546: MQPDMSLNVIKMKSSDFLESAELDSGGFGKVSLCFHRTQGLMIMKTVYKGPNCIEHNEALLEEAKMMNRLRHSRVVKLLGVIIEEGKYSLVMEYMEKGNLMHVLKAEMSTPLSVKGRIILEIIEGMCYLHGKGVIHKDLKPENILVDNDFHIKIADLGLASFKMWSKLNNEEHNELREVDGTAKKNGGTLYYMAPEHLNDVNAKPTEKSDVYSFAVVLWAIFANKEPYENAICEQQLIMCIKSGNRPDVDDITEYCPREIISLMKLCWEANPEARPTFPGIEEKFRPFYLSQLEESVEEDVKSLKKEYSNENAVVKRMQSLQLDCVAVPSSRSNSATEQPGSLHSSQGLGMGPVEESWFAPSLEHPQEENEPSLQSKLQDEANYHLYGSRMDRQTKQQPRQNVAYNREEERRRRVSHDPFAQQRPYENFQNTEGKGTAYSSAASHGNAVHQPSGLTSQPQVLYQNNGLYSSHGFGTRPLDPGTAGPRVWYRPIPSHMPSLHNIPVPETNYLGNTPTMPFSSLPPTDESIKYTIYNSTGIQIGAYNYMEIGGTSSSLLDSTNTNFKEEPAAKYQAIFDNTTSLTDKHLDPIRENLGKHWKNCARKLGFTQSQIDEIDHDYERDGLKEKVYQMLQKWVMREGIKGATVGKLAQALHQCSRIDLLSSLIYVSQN
UniProt Q01974, whole entry: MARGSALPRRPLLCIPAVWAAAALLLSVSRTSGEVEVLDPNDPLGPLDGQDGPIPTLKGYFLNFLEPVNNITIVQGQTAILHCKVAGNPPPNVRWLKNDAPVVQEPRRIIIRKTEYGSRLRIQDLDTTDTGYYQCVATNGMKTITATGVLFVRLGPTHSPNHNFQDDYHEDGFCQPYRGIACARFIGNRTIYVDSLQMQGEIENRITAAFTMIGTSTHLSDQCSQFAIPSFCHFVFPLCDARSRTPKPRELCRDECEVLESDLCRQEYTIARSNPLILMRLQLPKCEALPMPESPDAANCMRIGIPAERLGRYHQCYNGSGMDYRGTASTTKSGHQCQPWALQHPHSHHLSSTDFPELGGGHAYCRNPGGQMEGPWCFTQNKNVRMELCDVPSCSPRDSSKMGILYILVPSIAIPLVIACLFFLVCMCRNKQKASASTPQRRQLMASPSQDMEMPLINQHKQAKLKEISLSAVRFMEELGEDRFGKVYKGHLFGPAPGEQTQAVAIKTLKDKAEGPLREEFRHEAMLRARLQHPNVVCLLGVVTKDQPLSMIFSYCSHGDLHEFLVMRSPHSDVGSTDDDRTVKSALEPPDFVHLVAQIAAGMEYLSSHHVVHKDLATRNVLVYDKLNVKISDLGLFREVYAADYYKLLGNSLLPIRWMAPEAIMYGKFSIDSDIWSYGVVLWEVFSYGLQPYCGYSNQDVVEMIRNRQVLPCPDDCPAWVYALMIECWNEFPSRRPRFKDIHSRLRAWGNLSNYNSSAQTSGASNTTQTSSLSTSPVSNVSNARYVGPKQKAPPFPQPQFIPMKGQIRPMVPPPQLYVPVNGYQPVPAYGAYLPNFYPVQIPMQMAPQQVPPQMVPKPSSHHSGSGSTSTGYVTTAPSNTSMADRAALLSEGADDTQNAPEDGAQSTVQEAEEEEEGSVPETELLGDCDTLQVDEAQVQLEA
UniProt Q15418, whole entry: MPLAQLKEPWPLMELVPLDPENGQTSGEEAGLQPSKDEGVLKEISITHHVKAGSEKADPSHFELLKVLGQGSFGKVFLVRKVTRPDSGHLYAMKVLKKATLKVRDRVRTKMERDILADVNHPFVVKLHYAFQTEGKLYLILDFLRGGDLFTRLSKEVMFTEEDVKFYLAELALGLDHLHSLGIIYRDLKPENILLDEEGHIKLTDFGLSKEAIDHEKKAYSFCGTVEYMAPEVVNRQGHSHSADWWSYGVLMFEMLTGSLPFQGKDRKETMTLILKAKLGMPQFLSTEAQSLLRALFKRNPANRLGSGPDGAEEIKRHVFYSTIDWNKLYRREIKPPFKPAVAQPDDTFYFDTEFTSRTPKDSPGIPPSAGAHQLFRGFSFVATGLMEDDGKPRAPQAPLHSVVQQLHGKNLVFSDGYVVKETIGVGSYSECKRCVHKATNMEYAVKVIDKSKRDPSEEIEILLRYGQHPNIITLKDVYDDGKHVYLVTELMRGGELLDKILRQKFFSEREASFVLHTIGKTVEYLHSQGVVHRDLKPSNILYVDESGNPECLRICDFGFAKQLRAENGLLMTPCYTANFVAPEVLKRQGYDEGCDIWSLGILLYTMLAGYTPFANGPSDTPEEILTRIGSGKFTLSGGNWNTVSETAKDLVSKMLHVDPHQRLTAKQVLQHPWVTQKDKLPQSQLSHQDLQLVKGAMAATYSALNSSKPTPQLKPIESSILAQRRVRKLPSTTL
UniProt Q9NYA1, whole entry: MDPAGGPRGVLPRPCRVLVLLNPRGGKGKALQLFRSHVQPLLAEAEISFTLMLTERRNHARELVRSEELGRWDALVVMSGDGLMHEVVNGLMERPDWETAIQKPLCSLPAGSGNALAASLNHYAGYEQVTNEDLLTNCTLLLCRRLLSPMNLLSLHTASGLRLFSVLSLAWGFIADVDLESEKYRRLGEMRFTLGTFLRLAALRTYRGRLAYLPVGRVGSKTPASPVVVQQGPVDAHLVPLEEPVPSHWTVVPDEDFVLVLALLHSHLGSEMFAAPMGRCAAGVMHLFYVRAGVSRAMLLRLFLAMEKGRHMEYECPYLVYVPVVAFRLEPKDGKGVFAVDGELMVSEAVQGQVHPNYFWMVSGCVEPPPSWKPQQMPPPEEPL
UniProt Q15208: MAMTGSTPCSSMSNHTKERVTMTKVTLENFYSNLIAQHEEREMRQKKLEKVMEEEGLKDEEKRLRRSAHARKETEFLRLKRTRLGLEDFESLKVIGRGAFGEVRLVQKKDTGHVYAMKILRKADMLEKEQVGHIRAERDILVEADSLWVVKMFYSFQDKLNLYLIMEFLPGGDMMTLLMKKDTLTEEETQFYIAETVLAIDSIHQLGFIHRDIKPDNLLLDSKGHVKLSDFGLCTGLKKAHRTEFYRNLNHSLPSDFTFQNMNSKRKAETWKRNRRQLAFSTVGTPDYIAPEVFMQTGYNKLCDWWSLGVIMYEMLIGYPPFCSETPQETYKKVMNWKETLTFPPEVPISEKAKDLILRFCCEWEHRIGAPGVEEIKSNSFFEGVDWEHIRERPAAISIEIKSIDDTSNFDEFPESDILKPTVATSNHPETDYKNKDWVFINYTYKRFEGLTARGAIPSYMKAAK
UniProt P42680: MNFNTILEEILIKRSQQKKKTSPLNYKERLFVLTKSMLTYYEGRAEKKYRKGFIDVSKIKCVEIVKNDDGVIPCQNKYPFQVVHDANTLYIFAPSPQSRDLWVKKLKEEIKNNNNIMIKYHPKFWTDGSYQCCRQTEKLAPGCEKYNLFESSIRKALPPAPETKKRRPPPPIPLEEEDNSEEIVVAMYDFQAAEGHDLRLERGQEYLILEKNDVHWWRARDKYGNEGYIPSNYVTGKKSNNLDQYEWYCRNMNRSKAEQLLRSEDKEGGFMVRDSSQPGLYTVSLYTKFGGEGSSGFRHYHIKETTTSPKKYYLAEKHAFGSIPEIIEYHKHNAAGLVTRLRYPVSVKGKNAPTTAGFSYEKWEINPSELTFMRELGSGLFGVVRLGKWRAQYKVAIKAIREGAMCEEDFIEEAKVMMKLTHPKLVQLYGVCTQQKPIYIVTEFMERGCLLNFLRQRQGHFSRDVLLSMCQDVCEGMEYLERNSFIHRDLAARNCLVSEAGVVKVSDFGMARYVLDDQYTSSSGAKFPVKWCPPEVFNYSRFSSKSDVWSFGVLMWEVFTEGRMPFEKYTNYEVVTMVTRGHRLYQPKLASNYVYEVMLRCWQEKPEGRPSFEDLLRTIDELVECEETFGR
UniProt Q6PHR2: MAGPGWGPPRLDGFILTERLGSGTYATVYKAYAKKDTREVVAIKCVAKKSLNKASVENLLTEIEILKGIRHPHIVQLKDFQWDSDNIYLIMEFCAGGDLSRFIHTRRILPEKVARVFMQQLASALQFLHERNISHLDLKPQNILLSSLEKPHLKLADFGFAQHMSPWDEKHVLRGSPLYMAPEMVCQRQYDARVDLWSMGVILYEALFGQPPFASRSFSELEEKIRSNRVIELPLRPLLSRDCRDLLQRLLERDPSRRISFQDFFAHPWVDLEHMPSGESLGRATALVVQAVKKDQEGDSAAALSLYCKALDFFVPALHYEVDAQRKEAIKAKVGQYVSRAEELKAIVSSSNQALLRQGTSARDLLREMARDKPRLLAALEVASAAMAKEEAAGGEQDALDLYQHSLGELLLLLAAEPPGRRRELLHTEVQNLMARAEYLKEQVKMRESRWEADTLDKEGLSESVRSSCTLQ
UniProt P07947, whole entry, looked up: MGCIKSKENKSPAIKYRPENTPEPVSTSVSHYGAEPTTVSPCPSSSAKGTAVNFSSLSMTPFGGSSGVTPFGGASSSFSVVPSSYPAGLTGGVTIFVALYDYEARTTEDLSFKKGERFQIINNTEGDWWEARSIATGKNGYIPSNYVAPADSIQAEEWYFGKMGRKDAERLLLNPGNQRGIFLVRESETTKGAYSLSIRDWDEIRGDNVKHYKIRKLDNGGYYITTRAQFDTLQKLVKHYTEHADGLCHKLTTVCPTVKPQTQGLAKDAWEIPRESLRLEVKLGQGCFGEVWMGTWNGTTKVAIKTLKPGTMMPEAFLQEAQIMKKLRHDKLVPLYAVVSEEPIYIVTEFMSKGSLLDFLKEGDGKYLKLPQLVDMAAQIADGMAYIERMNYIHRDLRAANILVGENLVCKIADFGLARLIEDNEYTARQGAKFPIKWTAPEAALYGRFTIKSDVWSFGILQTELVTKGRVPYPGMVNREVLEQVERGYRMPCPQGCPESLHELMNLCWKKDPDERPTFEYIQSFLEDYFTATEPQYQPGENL
UniProt P43403: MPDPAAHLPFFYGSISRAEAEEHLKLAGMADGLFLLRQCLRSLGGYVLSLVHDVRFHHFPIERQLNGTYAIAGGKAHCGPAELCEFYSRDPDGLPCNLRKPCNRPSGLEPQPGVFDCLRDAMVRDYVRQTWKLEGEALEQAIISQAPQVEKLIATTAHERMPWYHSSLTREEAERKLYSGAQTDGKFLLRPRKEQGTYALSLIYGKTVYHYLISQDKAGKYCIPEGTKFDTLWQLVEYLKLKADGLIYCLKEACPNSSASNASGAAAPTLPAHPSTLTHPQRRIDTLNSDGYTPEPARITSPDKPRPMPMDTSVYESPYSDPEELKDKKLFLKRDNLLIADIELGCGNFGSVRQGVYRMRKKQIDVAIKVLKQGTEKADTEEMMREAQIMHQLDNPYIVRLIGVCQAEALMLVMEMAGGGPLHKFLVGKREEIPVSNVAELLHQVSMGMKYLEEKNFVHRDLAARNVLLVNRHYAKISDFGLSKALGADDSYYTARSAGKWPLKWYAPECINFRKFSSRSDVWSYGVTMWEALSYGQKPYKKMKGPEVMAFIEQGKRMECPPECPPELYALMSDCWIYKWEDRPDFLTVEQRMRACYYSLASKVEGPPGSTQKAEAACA
UniProt P31749: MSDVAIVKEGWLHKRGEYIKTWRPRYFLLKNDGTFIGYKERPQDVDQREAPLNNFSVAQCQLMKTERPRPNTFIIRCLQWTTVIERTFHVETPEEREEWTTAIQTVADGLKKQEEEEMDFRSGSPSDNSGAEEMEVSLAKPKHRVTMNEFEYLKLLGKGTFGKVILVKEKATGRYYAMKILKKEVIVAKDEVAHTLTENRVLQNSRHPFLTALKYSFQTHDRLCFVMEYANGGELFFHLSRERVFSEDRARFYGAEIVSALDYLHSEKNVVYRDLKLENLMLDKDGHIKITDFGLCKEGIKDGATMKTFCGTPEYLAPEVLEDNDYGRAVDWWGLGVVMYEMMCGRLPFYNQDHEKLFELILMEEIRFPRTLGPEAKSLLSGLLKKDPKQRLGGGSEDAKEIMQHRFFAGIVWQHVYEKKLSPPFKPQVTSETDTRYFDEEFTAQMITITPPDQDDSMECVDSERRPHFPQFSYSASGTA

Tests used:
Conditions in all cases: K562; 2-18 h
RET = RET (UniProt P07949); assay: kinase-Nluc reporter destabilization hit call (1 = scored as downregulated) (binary); higher = compound decreases kinase abundance
[1] = molecular target: RET_M918T (clone: RET_mut) (UniProt P07949); assay: as above
RIOK1 = RIOK1 (UniProt Q9BRS2); assay: as above
RIPK1 = RIPK1 (UniProt Q13546); assay: as above
RIPK2 = RIPK2 (UniProt O43353); assay: as above
ROR2 = ROR2 (UniProt Q01974); assay: as above
RPS6KA1 = RPS6KA1 (UniProt Q15418); assay: as above
SPHK1 = SPHK1 (UniProt Q9NYA1); assay: as above
SRC = SRC (UniProt P12931); assay: as above
STK24 = STK24 (UniProt Q9Y6E0); assay: as above
STK38 = STK38 (UniProt Q15208); assay: as above
SYK = SYK (UniProt P43405); assay: as above
TEC = TEC (UniProt P42680); assay: as above
TYK2 = TYK2 (UniProt P29597); assay: as above
ULK3 = ULK3 (UniProt Q6PHR2); assay: as above
YES1 = YES1 (UniProt P07947); assay: as above
ZAK = ZAK (UniProt Q9NYL2); assay: as above
ZAP70 = ZAP70 (UniProt P43403); assay: as above
ABL1 = ABL1 (UniProt P00519); assay: number of time points (of 5) at which kinase-Nluc abundance scored as decreased, DMSO-normalised (count); higher = more persistent destabilization
AKT1 = AKT1 (UniProt P31749); assay: as above

Cn1nc(C(C)(C)C)cc1NC(=O)Nc1ccc(Oc2ccncc2)cc1 (10 µM)
inactive: kinase-Nluc reporter destabilization hit call (RET) 0 | kinase-Nluc reporter destabilization hit call [1] 0 | kinase-Nluc reporter destabilization hit call (RIOK1) 0 | kinase-Nluc reporter destabilization hit call (RIPK1) 0 | kinase-Nluc reporter destabilization hit call (RIPK2) 0 | kinase-Nluc reporter destabilization hit call (ROR2) 0 | kinase-Nluc reporter destabilization hit call (RPS6KA1) 0 | kinase-Nluc reporter destabilization hit call (SPHK1) 0 | kinase-Nluc reporter destabilization hit call (SRC) 0 | kinase-Nluc reporter destabilization hit call (STK24) 0 | kinase-Nluc reporter destabilization hit call (STK38) 0 | kinase-Nluc reporter destabilization hit call (SYK) 0 | kinase-Nluc reporter destabilization hit call (TEC) 0 | kinase-Nluc reporter destabilization hit call (TYK2) 0 | kinase-Nluc reporter destabilization hit call (ULK3) 0 | kinase-Nluc reporter destabilization hit call (YES1) 0 | kinase-Nluc reporter destabilization hit call (ZAK) 0 | kinase-Nluc reporter destabilization hit call (ZAP70) 0
0: number of time points (ABL1) | number of time points (AKT1)

Cc1cc(F)c(C(=O)Nc2cccc(-c3nncn3C(C)C)n2)cc1-n1cnc(C2CC2)c1 [Selonsertib] (10 µM)
0: number of time points (ABL1) | number of time points (AKT1)
inactive: kinase-Nluc reporter destabilization hit call (RET) 0 | kinase-Nluc reporter destabilization hit call [1] 0 | kinase-Nluc reporter destabilization hit call (RIOK1) 0 | kinase-Nluc reporter destabilization hit call (RIPK1) 0 | kinase-Nluc reporter destabilization hit call (RIPK2) 0 | kinase-Nluc reporter destabilization hit call (ROR2) 0 | kinase-Nluc reporter destabilization hit call (RPS6KA1) 0 | kinase-Nluc reporter destabilization hit call (SPHK1) 0 | kinase-Nluc reporter destabilization hit call (SRC) 0 | kinase-Nluc reporter destabilization hit call (STK24) 0 | kinase-Nluc reporter destabilization hit call (STK38) 0 | kinase-Nluc reporter destabilization hit call (SYK) 0 | kinase-Nluc reporter destabilization hit call (TEC) 0 | kinase-Nluc reporter destabilization hit call (TYK2) 0 | kinase-Nluc reporter destabilization hit call (ULK3) 0 | kinase-Nluc reporter destabilization hit call (YES1) 0 | kinase-Nluc reporter destabilization hit call (ZAK) 0 | kinase-Nluc reporter destabilization hit call (ZAP70) 0

COc1cc(OC)cc(N(CCNC(C)C)c2ccc3ncc(-c4cnn(C)c4)nc3c2)c1 [Erdafitinib] (2.5 µM)
inactive: kinase-Nluc reporter destabilization hit call (RET) 0 | kinase-Nluc reporter destabilization hit call [1] 0 | kinase-Nluc reporter destabilization hit call (RIOK1) 0 | kinase-Nluc reporter destabilization hit call (RIPK1) 0 | kinase-Nluc reporter destabilization hit call (RIPK2) 0 | kinase-Nluc reporter destabilization hit call (ROR2) 0 | kinase-Nluc reporter destabilization hit call (RPS6KA1) 0 | kinase-Nluc reporter destabilization hit call (SPHK1) 0 | kinase-Nluc reporter destabilization hit call (SRC) 0 | kinase-Nluc reporter destabilization hit call (STK24) 0 | kinase-Nluc reporter destabilization hit call (STK38) 0 | kinase-Nluc reporter destabilization hit call (SYK) 0 | kinase-Nluc reporter destabilization hit call (TEC) 0 | kinase-Nluc reporter destabilization hit call (TYK2) 0 | kinase-Nluc reporter destabilization hit call (ULK3) 0 | kinase-Nluc reporter destabilization hit call (YES1) 0 | kinase-Nluc reporter destabilization hit call (ZAK) 0 | kinase-Nluc reporter destabilization hit call (ZAP70) 0
0: number of time points (ABL1) | number of time points (AKT1)

CC(C)(C)S(=O)(=O)c1cc2c(Nc3ccc4scnc4c3)ncnc2cc1OCCO (2.5 µM)
0: number of time points (ABL1) | number of time points (AKT1)
active: kinase-Nluc reporter destabilization hit call (RIPK2) 1
inactive: kinase-Nluc reporter destabilization hit call (RET) 0 | kinase-Nluc reporter destabilization hit call [1] 0 | kinase-Nluc reporter destabilization hit call (RIOK1) 0 | kinase-Nluc reporter destabilization hit call (RIPK1) 0 | kinase-Nluc reporter destabilization hit call (ROR2) 0 | kinase-Nluc reporter destabilization hit call (RPS6KA1) 0 | kinase-Nluc reporter destabilization hit call (SPHK1) 0 | kinase-Nluc reporter destabilization hit call (SRC) 0 | kinase-Nluc reporter destabilization hit call (STK24) 0 | kinase-Nluc reporter destabilization hit call (STK38) 0 | kinase-Nluc reporter destabilization hit call (SYK) 0 | kinase-Nluc reporter destabilization hit call (TEC) 0 | kinase-Nluc reporter destabilization hit call (TYK2) 0 | kinase-Nluc reporter destabilization hit call (ULK3) 0 | kinase-Nluc reporter destabilization hit call (YES1) 0 | kinase-Nluc reporter destabilization hit call (ZAK) 0 | kinase-Nluc reporter destabilization hit call (ZAP70) 0

COc1cc(C(=O)NC2CCN(C)CC2)ccc1Nc1ncc2c(n1)N(C1CCCC1)CC(F)(F)C(=O)N2C (10 µM)
inactive: kinase-Nluc reporter destabilization hit call (RET) 0 | kinase-Nluc reporter destabilization hit call [1] 0 | kinase-Nluc reporter destabilization hit call (RIOK1) 0 | kinase-Nluc reporter destabilization hit call (RIPK1) 0 | kinase-Nluc reporter destabilization hit call (RIPK2) 0 | kinase-Nluc reporter destabilization hit call (ROR2) 0 | kinase-Nluc reporter destabilization hit call (RPS6KA1) 0 | kinase-Nluc reporter destabilization hit call (SPHK1) 0 | kinase-Nluc reporter destabilization hit call (SRC) 0 | kinase-Nluc reporter destabilization hit call (STK24) 0 | kinase-Nluc reporter destabilization hit call (STK38) 0 | kinase-Nluc reporter destabilization hit call (SYK) 0 | kinase-Nluc reporter destabilization hit call (TEC) 0 | kinase-Nluc reporter destabilization hit call (TYK2) 0 | kinase-Nluc reporter destabilization hit call (ULK3) 0 | kinase-Nluc reporter destabilization hit call (YES1) 0 | kinase-Nluc reporter destabilization hit call (ZAK) 0 | kinase-Nluc reporter destabilization hit call (ZAP70) 0
0: number of time points (ABL1) | number of time points (AKT1)

Cc1nc(-c2cnc(NC(C)C)n(C)c2=O)ccc1Oc1ccnc(-c2cnn(C)c2)c1 (2.5 µM)
0: number of time points (ABL1) | number of time points (AKT1)
inactive: kinase-Nluc reporter destabilization hit call (RET) 0 | kinase-Nluc reporter destabilization hit call [1] 0 | kinase-Nluc reporter destabilization hit call (RIOK1) 0 | kinase-Nluc reporter destabilization hit call (RIPK1) 0 | kinase-Nluc reporter destabilization hit call (RIPK2) 0 | kinase-Nluc reporter destabilization hit call (ROR2) 0 | kinase-Nluc reporter destabilization hit call (RPS6KA1) 0 | kinase-Nluc reporter destabilization hit call (SPHK1) 0 | kinase-Nluc reporter destabilization hit call (SRC) 0 | kinase-Nluc reporter destabilization hit call (STK24) 0 | kinase-Nluc reporter destabilization hit call (STK38) 0 | kinase-Nluc reporter destabilization hit call (SYK) 0 | kinase-Nluc reporter destabilization hit call (TEC) 0 | kinase-Nluc reporter destabilization hit call (TYK2) 0 | kinase-Nluc reporter destabilization hit call (ULK3) 0 | kinase-Nluc reporter destabilization hit call (YES1) 0 | kinase-Nluc reporter destabilization hit call (ZAK) 0 | kinase-Nluc reporter destabilization hit call (ZAP70) 0

CCOc1ccn(-c2ccc(F)cc2)c(=O)c1C(=O)Nc1ccc(Oc2ccnc(N)c2Cl)c(F)c1 (10 µM)
2: number of time points (ABL1)
inactive: kinase-Nluc reporter destabilization hit call (RET) 0 | kinase-Nluc reporter destabilization hit call [1] 0 | kinase-Nluc reporter destabilization hit call (RIOK1) 0 | kinase-Nluc reporter destabilization hit call (RIPK1) 0 | kinase-Nluc reporter destabilization hit call (RIPK2) 0 | kinase-Nluc reporter destabilization hit call (ROR2) 0 | kinase-Nluc reporter destabilization hit call (RPS6KA1) 0 | kinase-Nluc reporter destabilization hit call (SPHK1) 0 | kinase-Nluc reporter destabilization hit call (SRC) 0 | kinase-Nluc reporter destabilization hit call (STK24) 0 | kinase-Nluc reporter destabilization hit call (STK38) 0 | kinase-Nluc reporter destabilization hit call (SYK) 0 | kinase-Nluc reporter destabilization hit call (TEC) 0 | kinase-Nluc reporter destabilization hit call (TYK2) 0 | kinase-Nluc reporter destabilization hit call (ULK3) 0 | kinase-Nluc reporter destabilization hit call (YES1) 0 | kinase-Nluc reporter destabilization hit call (ZAK) 0 | kinase-Nluc reporter destabilization hit call (ZAP70) 0
0: number of time points (AKT1)

CCCn1cnc2c(NCc3ccccc3)nc(NC(CC)CO)nc21 (stereo not given) [Ca2+ channel agonist 1] (2.5 µM)
0: number of time points (ABL1) | number of time points (AKT1)
inactive: kinase-Nluc reporter destabilization hit call (RET) 0 | kinase-Nluc reporter destabilization hit call [1] 0 | kinase-Nluc reporter destabilization hit call (RIOK1) 0 | kinase-Nluc reporter destabilization hit call (RIPK1) 0 | kinase-Nluc reporter destabilization hit call (RIPK2) 0 | kinase-Nluc reporter destabilization hit call (ROR2) 0 | kinase-Nluc reporter destabilization hit call (RPS6KA1) 0 | kinase-Nluc reporter destabilization hit call (SPHK1) 0 | kinase-Nluc reporter destabilization hit call (SRC) 0 | kinase-Nluc reporter destabilization hit call (STK24) 0 | kinase-Nluc reporter destabilization hit call (STK38) 0 | kinase-Nluc reporter destabilization hit call (SYK) 0 | kinase-Nluc reporter destabilization hit call (TEC) 0 | kinase-Nluc reporter destabilization hit call (TYK2) 0 | kinase-Nluc reporter destabilization hit call (ULK3) 0 | kinase-Nluc reporter destabilization hit call (YES1) 0 | kinase-Nluc reporter destabilization hit call (ZAK) 0 | kinase-Nluc reporter destabilization hit call (ZAP70) 0

CC#CC(=O)N[C@H]1CCCN(c2c(F)cc(C(N)=O)c3[nH]c(C)c(C)c23)C1 [Branebrutinib] (10 µM)
0: number of time points (ABL1) | number of time points (AKT1)
inactive: kinase-Nluc reporter destabilization hit call (RET) 0 | kinase-Nluc reporter destabilization hit call [1] 0 | kinase-Nluc reporter destabilization hit call (RIOK1) 0 | kinase-Nluc reporter destabilization hit call (RIPK1) 0 | kinase-Nluc reporter destabilization hit call (RIPK2) 0 | kinase-Nluc reporter destabilization hit call (ROR2) 0 | kinase-Nluc reporter destabilization hit call (RPS6KA1) 0 | kinase-Nluc reporter destabilization hit call (SPHK1) 0 | kinase-Nluc reporter destabilization hit call (SRC) 0 | kinase-Nluc reporter destabilization hit call (STK24) 0 | kinase-Nluc reporter destabilization hit call (STK38) 0 | kinase-Nluc reporter destabilization hit call (SYK) 0 | kinase-Nluc reporter destabilization hit call (TEC) 0 | kinase-Nluc reporter destabilization hit call (TYK2) 0 | kinase-Nluc reporter destabilization hit call (ULK3) 0 | kinase-Nluc reporter destabilization hit call (YES1) 0 | kinase-Nluc reporter destabilization hit call (ZAK) 0 | kinase-Nluc reporter destabilization hit call (ZAP70) 0
